Experimental data published in PubChem BioAssay AID248 (DTP/NCI, 2004).
The list shows only some results of the screen, not a fair sample: it is rich in T/C values a quarter to a half above the control, in often repeated tests (any T/C) and in doses without a T/C. Other doses and runs of a compound stand elsewhere. T/C is the treated group as % of the vehicle group. Some entries give survivors of the animals treated and no T/C: the source holds a T/C of zero for them, seemingly a mark for toxic or unscored doses. Some survivor counts are full or nearly so, which does not show that the dose was tolerated: survival well below the control is almost never listed, so the zero probably covers shortened survival too. Counts of survivors are from the toxicity check (mostly the fifth day) where no day follows; animals may have died later. Schedules are NCI's codes, read here as Q, the interval in days (D) or hours (H), X, the number of doses.

Test system: L1210 leukemia ip in BDF1 mice, survival T/C
Assay: NCI In Vivo Anticancer Drug Screen. Data for tumor model L1210 Leukemia (intraperitoneal) in B6D2F1 (BDF1) mice
Details: T/C endpoint: mean survival time, higher T/C = longer survival

Question: With `C(=C\c1nc2ccccc2nc1/C=C/c1ccc2c(c1)OCO2)/c1ccc2c(c1)OCO2` as the compound, how does the survivor count (dose: 100.0 mg/kg/injection, schedule: Q01DX009 (ip), vehicle: Klucel (hydroxypropylcellulose) (HPC)) read?
Answer: 6 of 6

Question: What about the survivor count (dose: 200.0 mg/kg/injection, schedule: Q01DX009 (ip), vehicle: Klucel (hydroxypropylcellulose) (HPC)) of the same compound?
Answer: 6 of 6

Question: What does the source list for `CCCCN(CCCC)C(=O)c1[nH]cnc1/N=N\N(C)C`?
Answer: survivor count (dose: 200.0 mg/kg/injection, schedule: Q01DX009 (ip), vehicle: saline with Tween-80): 0 of 6; survivor count (dose: 400.0 mg/kg/injection, schedule: Q01DX001 (ip), vehicle: saline with Tween-80): 0 of 6

Question: What does the source list for `N#Cc1c(F)c(F)c(Oc2c(F)c(F)c(F)c(Oc3c(F)c(F)c(C#N)c(F)c3F)c2F)c(F)c1F`?
Answer: survivor count (dose: 100.0 mg/kg/injection, schedule: Q04DX003 (ip), vehicle: other): 6 of 6; survivor count (dose: 400.0 mg/kg/injection, schedule: Q01DX009 (ip), vehicle: other): 0 of 6; survivor count (dose: 400.0 mg/kg/injection, schedule: Q04DX003 (ip), vehicle: other): 5 of 6
